Bridge positions count the residues as written; N and C are the ends. Ends that are not written are not given here.

A short description of this data set: Boc solid-phase peptide synthesis; benzhydrylamine resin; diisopropylcarbodiimide. The conditions noted are these: whole synthesis, scale 0.5 mmole.

Substance KCNTATCA-NH2 (disulfide 2-7) displayed an isolated mass of 188 mg.

Values taken from patent US6821954B2 (Auckland UniServices Limited, priority 1997, dated 2004).
